Results taken from patent publication US20120107861A1, “METHOD OF DETERMINING RISK OF ARRHYTHMIA” (priority 2010, published 2012).
For at least one compound, name, drawing or mass did not settle the structure.

Test system: human iPSC-derived cardiomyocytes (iCells)
Test: Multi-electrode array (MEA) field potential recording of iPSC-derived cardiomyocytes
Format: cell-based
Conditions: iPSC-CMs; for nifedipine Ca2+-peak amplitude
Method: MEAs were prepared according to manufacturer guidelines. Briefly, microelectrodes in 6-well MEA dishes were coated with 2 μL Fibronectin (Sigma) diluted 1:20 and incubated at 37° C. for 3 h. Cells were reseeded at the target density of 3×10^4 cells in a 2 μL delivery to microelectrodes and incubated at 37° C., 7% CO2 for 3 h prior to filling each well with Maintenance Media. The media of cardio e-plates and MEAs were changed every 2 d thereafter, using Maintenance Media warmed to 37° C. Cells were cultured for 3-7 d prior to conducting an experiment on cardio e-plates or MEAs.
The wells of the MEAs had half the volume in each well replaced with fresh warm Maintenance Media, immediately prior to experimentation so as to be consistent with the media replacement for xCELLigence® experimentation. MEAs were allowed a 15 min equilibration period within the MEA recorder system (Multichannel Systems), prior to compound exposure. The temperature was maintained at 37° C. and a constant air flow of 95% O2, 5% CO2, was perfused over the MEAs. Compound additions were made in serially increasing additions, recording for 15 min at each concentration. All compounds were tested as n≧4 wells.

Structure (SMILES): COC(=O)C1=C(C)NC(C)=C(C(=O)OC)C1c1ccccc1[N+](=O)[O-] [Nifedipine]
- amplitude in MEA: decrease
